This is one part of the list. Most values come without repeats; read them as rough.
What follows are molecules tested on Saccharomyces cerevisiae BY4743 (assay: growth (OD600) relative to untreated control; higher = less growth inhibition). Conditions: compound concentration: 133 uM; 20 h.
Method: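 NMCCC compounds (133 uM, no IPBC) tested alone against Saccharomyces cerevisiae BY4743 in YPD, 96-well plates, starting OD600 ~0.1. Growth was read as OD600 at 20 h and expressed as % of the untreated control. Single pass.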
For `COc1cc(OC)c(NC(=O)CCS(=O)(=O)c2ccc3c(c2)NC(=O)C(C)S3)cc1Cl` (stereo unspecified), the growth was 89.2%. For `CCOc1ccc(N(C)S(=O)(=O)c2ccc3c(c2)NC(=O)CC(C)S3)cc1` (stereo unspecified), the growth was 96.1%. Work on `Cc1cc(N2CCN(CC(=O)N(C)C)CC2)n2nc(C(F)(F)F)nc2n1` yielded a growth of 87.7%. For `CC/1=C/C(=O)N(/C(=C1C(=O)OCC(=O)NC2(CCCC2)C#N)C)C3=CC=CC=C3`, the growth was 97.9%. With `COc1ccc(CN(C)C(=O)c2sc(NC(=O)c3ccco3)cc2C)c(OC)c1` the growth was 93.6%. In the case of `CC(=O)c1oc2ccccc2c1NC(=O)CSc1nc[nH]n1`, the growth is reported as 110%. `Cn1nc(C(C)(C)C)cc1NC(=O)COc1ccc(Oc2ccccn2)cc1` was tested, and the growth was 112%. With `CCOC1=CC(=CC=C1O)C\2\C(=C(\N)O\C(=C2C#N)C(C)(C)C)C#N` (stereo unspecified) the growth was 108%. With `CC(C)NC(=O)CCCc1nnc2n(C)c(=O)c3sccc3n12` the growth was 96.7%. In the case of `NC(=O)Nc1cccc(C(=O)N2CCOc3ccccc32)c1`, the growth is reported as 97%. `Cc1cc(S(=O)(=O)N(C)C)cc(NC(=O)c2c(-c3c(F)cccc3Cl)noc2C)c1C` showed a growth of 108%. `CCn1c(C)cc(C(=O)CSc2n[nH]c(N)n2)c1C` gave a growth of 115%. Molecule `CCO/C(O)=C1\C(C)=NC2=C(C(=O)CC(C)(C)C2)C1c1cc(Cl)ccc1F` (stereo unspecified) has a growth of 103%. Molecule `CC1CCCCC1NC(=O)CCNS(=O)(=O)c1ccc2nc(O)ccc2c1` (stereo unspecified) has a growth of 106%. `COC(=O)CCc1nc(-c2nonc2N)no1` was tested, and the growth was 89%. Molecule `Cc1cc(Cl)ccc1Nc1nc(N)c(C(=O)C(C)C)s1` has a growth of 8.5%.

Reference: the supplement of paper PMC8007513
